Reference: patent US20210180067

Chains of the proteins cited; added tags and fusions are not shown. A line that says so, or that is headed by a name, gives the form on record, which may keep a tag or linker.
CD25-IL2 complex on primary human CD4+CD25high Treg cells treated with IL2 (Homo sapiens), one chain, as listed by the source: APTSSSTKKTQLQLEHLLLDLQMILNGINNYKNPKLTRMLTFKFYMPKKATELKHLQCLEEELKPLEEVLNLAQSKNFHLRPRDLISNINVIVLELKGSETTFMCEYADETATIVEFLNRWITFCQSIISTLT

Columns and labels:
[1] = system: CD25-IL2 complex on primary human CD4+CD25high Treg cells treated with IL2 (Homo sapiens); experiment: binding assay; settings: 2'-F C and U, AIM-V, 37 C, cell binding assay, protein on the cell surface
[2] = target: T1, CD25 (IL2RA) overexpressed on HEK293 (HEK-CD25) (Homo sapiens) (UniProt P01589); experiment: binding assay; settings: 2'-F C and U, cell binding RT-qPCR, 37 C, protein on the cell surface
T1 sequence (looked up, limits assumed): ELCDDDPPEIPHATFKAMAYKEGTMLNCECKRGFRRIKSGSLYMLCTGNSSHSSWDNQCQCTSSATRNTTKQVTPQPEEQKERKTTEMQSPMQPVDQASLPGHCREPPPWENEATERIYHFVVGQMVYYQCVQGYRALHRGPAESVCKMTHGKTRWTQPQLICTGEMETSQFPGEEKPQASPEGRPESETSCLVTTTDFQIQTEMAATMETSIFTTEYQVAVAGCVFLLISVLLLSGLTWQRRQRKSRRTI

[3] = system: CD25 (IL2RA)-IL2 complex (Homo sapiens); experiment: pull-down; settings: 2'-F C and U, binding reduced vs unoccupied CD25, 2 mM CaCl2, 37 C, RT-qPCR, purified recombinant protein, protein details: CD25 His-tagged, Thermo Fisher
[4] = 100 nM RNA, CD25 binders stated higher than on parental HEK293
[5] = lower on IL2-treated than untreated Tregs
[6] = higher on IL2-treated than untreated Tregs

Sequence	binding result [2, 4]	binding result [1, 5]	binding result [1, 6]	other results
GGGAGGACGAUGCGGAUUCUGGUUACUGGCCGCCCCAGACGACUCGCCCGA [Tr-11]	binds	–	–	binding result ([1]; equal on IL2-treated and untreated Tregs): binds
GGGAGGACGAUGCGGCACACCGAAAUGUCCCGACUCAGACGACUCGCCCGA [C-248]	–	–	–	binding result ([2]; negative control, significantly lower than Tr-1): no binding
GGGAGGACGAUGCGGCGUUUCCUCUGGUUCGUCCCCAGACGACUCGCCCGA [Tr-6]	binds	binds more weakly	–	binding result [3]: binds more weakly
GGGAGGACGAUGCGGGCCGUUGUUGUGUGCCGCCCCAGACGACUCGCCCGA [Tr-8]	binds	binds more weakly	–	binding result ([3]; inverse correlation with IL2 occupancy (R2=0.565)): binds more weakly
GGGAGGACGAUGCGGUCCUGUCGUCUGUUCGUCCCCAGACGACUCGCCCGA [Tr-1]	–	–	binds	binding result ([2]; 100 nM RNA, significantly higher than on parental HEK293): binds
GGGAGGACGAUGCGGUGAGUCGUUCCCUUCGUCCCCAGACGACUCGCCCGA [Tr-7]	binds	–	binds	–

For some of these results: A weaker result is weaker than the reference pair of the same experiment. For some of these results: Where cells or extracts were used, other partners may take part. For some of these results: Negatives hold for the conditions tested. For some of these results: Protein sequences can lack the tags named with them.
